Fewer than 10 of roughly 1,200 compounds were called active.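 Rule for the calls: active = inhibition reaching a set limit at one or more tested concentrations; inactive = inhibition under that limit at every dose.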 The list shows a part of the results. Results with a measured potency or affinity are listed apart.
Assay: RAM pathway signaling blockade in S. cerevisiae – dose response (AID 1307);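 note: 0% = DMSO vehicle wells and 100% = 10 µM 1-NA-PP1 control; higher inhibition means more yeast growth since RAM block rescues cells from 5-FOA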
Conditions: S. cerevisiae RAM network URA3 reporter, 5-FOA growth OD615, stronger effect = higher value, yeast express analog-sensitive mutant Cbk1 kinase; at 100 µM unless noted

Max inhibition, inactive:
COc1ccc(/C=C/C(=O)OCc2csc(-c3ccccc3)n2)cc1OC 1.41% [at 0.782 µM]
Cc1ccccc1OCCNc1cc(N2CCCCC2)ccc1[N+](=O)[O-] 3.77% [at 50 µM]
CCCCSc1nnc([C@H](CC(C)C)NC(=O)OC(C)(C)C)o1 1.2% [at 0.196 µM]
COc1ccc(C)cc1NC(=O)C(Sc1ccccc1)c1ccccc1 (stereo unspecified) 4.13%
N#Cc1ccc(CSc2nnc(-c3c[nH]c4ccccc34)n2-c2ccccc2)cc1 1.95% [at 0.391 µM]
O=c1c2ccccc2c(-c2ccccc2)nn1Cc1ccc(Cl)cc1 2.43% [at 0.196 µM]
C=CCN1C(=O)C(Cc2cccc(C)c2)SC1=Nc1ccc(C(=O)O)cc1 (stereo unspecified) 2.7% [at 0.782 µM]
Cc1ccc(C(=O)n2nc(-c3ccccc3)nc2NCc2ccco2)cc1 2.13%
Cc1ccc(NC(=O)c2cc(S(=O)(=O)NCCC3=CCCCC3)ccc2F)cc1 3.41%
Cc1ccc(-c2csc(N(CC3CCCO3)C(=O)c3ccco3)n2)cc1 (stereo unspecified) 1.93% [at 12.5 µM]
O=[N+]([O-])c1ccc(C2Nc3cccc4cccc(c34)N2)cc1 5.54%
CN(c1ccccc1)c1ccc(/C=c2\s/c(=C(/C#N)C(=O)C(C)(C)C)n(Cc3ccco3)c2=O)cc1 9.12%
COc1ccc(C(=O)/C=C/c2ccc(N3CCCCC3)c([N+](=O)[O-])c2)c(OC)c1 7.06% [at 50 µM]
COc1ccc(/C=C(\NC(=O)c2ccc(OCC(C)C)cc2)C(=O)OCc2ccco2)cc1 2.11%
Cc1cc(C)cc(NC(=O)CSCc2cnn(-c3ccccc3)c2-n2cccc2)c1 7.76%
S=C(NCCC(c1ccccc1)c1ccccc1)Nc1ccccc1Cl 2.81%
CC(C)CNC(=O)c1ccccc1NC(=O)c1ccc(CSc2ccccc2)cc1 3.8% [at 12.5 µM]
CCCC(CCC)=NNc1ccc(S(=O)(=O)Nc2ccccc2OC)cc1[N+](=O)[O-] 3.78% [at 0.391 µM]
O=c1c2ccccc2nc(SCc2cccc(F)c2)n1Cc1ccco1 5.29% [at 50 µM]
CCC(C(=O)OCC(=O)Nc1c(Cl)cc(Cl)cc1Cl)c1ccccc1 (stereo unspecified) 3.02% [at 0.782 µM]
COc1ccc(-c2ccc(-c3noc(-c4ccccc4)n3)c(OC)n2)cc1 3.85% [at 50 µM]
CCN(CC)S(=O)(=O)c1cccc(-c2nnc(SC(C)C(=O)NCCC3=CCCCC3)o2)c1 (stereo unspecified) 2.79% [at 25 µM]
CCOc1cc(NC(=O)c2ccccn2)c(OCC)cc1NC(=O)c1ccc(C)cc1 7.44%
O=C1CCC(/C=C/c2ccccc2)=NN1Cc1ccc(Cl)c(Cl)c1 3.06%
COc1cc(CNn2c(C)n[nH]c2=S)cc(Cl)c1OCc1ccccc1 2.51% [at 25 µM]
CCOC(=O)c1[nH]cnc1N=Nc1c(O)ccc2ccccc12 16.7%
O=C(Nc1cccc(C(F)(F)F)c1)C1CCCCC1 3.33% [at 3.125 µM]
O=C(Nc1ccn(Cc2cccc3ccccc23)n1)c1cccnc1 3.63%
Cc1ccc(/C=C/c2ccc(=O)n(Cc3ccccc3Cl)n2)cc1 3.92% [at 3.125 µM]
O=C(c1ccc(C(F)(F)F)cc1)N1CCC(=O)N(C(COCc2ccccc2)Cc2ccccc2)CC1 (stereo unspecified) 2.82%
CC(C)Oc1cccc(C(=O)NC(=S)Nc2cccc(C(F)(F)F)c2)c1 2.41% [at 0.782 µM]
CC(=O)c1ccc(OCc2ccc(Oc3c(Cl)cccc3[N+](=O)[O-])cc2)cc1 2.72%
COc1ccc(OC)c(NC(=O)C(Sc2ccccc2)c2ccccc2)c1 (stereo unspecified) 4.44% [at 50 µM]
COc1ccc(-c2csc(NCc3ccco3)n2)cc1C 4.8% [at 50 µM]
CC(=O)OCCCNc1cc(Sc2ccc(Cl)cc2)c2nonc2c1[N+](=O)[O-] 10.4%
COc1cc(/C=N/Nc2ccc(Cl)cc2)ccc1OC(=O)c1cccs1 2.6% [at 0.391 µM]
Cc1ccccc1OCC(=O)OCC(=O)c1ccc(-c2ccccc2)cc1 7.96%
CCCCOc1ccc(S(=O)(=O)Nc2cc(OC)ccc2OC)cc1 3.71% [at 25 µM]
CCOCCCNC(=S)N1CCCN(c2nc3cc(C)c(C)cc3cc2C#N)CC1 1.76% [at 0.391 µM]
CCC1CCCCN1S(=O)(=O)c1ccc(S(=O)(=O)N(Cc2cccs2)C2CC2)cc1 (stereo unspecified) 2.14% [at 3.125 µM]
Cn1nc(C(F)(F)F)c(/C=N/OC(=O)c2ccccc2)c1SCc1ccc(Cl)cc1 2.75% [at 25 µM]
COc1cc(/C=C/c2cc(C(=O)O)c3ccccc3n2)cc(OC)c1O 8.74%
Cc1cc(NC(=O)CCSc2ccccc2)ccc1Br 1.17% [at 0.782 µM]
O=C(CCc1ccc(CCC(=O)c2cccs2)s1)c1cccs1 2.46% [at 0.782 µM]
Cc1c(C(=O)N2CCc3ccccc3C2)oc2ccc(S(=O)(=O)N3CC(C)CC(C)C3)cc12 (stereo unspecified) 7.67%
O=C(CSc1ccc(Br)cc1)Nc1ccccc1Oc1ccccc1 3.77% [at 0.196 µM]
Cc1noc(NS(=O)(=O)c2ccc(N/C=C\C(=O)c3ccc(Br)cc3)cc2)c1C 7.53%
C=CCn1c(C)cc(C(=O)CSc2nnc(NCc3ccccc3)s2)c1C 1.92% [at 0.196 µM]
O=C(COC(=O)c1ccc(CSc2ccc(Cl)cc2)cc1)Nc1ccccc1 4.59%
CCc1ccccc1NC(=O)/C(C#N)=C/c1ccc(Sc2ccccc2)o1 2.64% [at 0.196 µM]
Fc1ccc(C2CC(c3cccs3)=NN2c2ccccc2)cc1 (stereo unspecified) 2.58%

Arranged by count of non-hydrogen atoms (smallest number first): part of the list above.
Max inhibition, inactive:
COc1ccc(C)cc1NC(=O)C(Sc1ccccc1)c1ccccc1 (stereo unspecified) 4.13%
C=CCN1C(=O)C(Cc2cccc(C)c2)SC1=Nc1ccc(C(=O)O)cc1 (stereo unspecified) 2.7% [at 0.782 µM]
Cc1ccc(NC(=O)c2cc(S(=O)(=O)NCCC3=CCCCC3)ccc2F)cc1 3.41%

From PubChem BioAssay AID1307 (SRMLSC, 2008)
